Test results reported in patent US20110217202A1, “ACTIVE OXYGEN DISINFECTION SYSTEM AND USE THEREOF” (priority 2010, published 2011).

Key:
[1] = Uptake of photosensitizers by contact lenses (Example 3); conditions: 10 μg/mL photosensitizer, lenses submerged overnight; for UV/Vis (uptake by lens): UV spectrometry against blank lens
[2] = as above; conditions: 10 μg/mL photosensitizer, lenses submerged overnight; for UV/Vis (uptake by lens): UV spectrometry against blank lens; remark: listed apart in the source

SMILES | Visual (color change of the lens) [1] | UV/Vis (uptake by lens) [1] | Visual (color change of the lens) [2] | UV/Vis (uptake by lens) [2]
C[n+]1ccc(-c2c3nc(c(-c4cc[n+](C)cc4)c4ccc([nH]4)c(-c4cc[n+](C)cc4)c4nc(c(-c5cc[n+](C)cc5)c5ccc2[nH]5)C=C4)C=C3)cc1.Cc1ccc(S(=O)(=O)[O-])cc1.Cc1ccc(S(=O)(=O)[O-])cc1.Cc1ccc(S(=O)(=O)[O-])cc1.Cc1ccc(S(=O)(=O)[O-])cc1 [TMPyP, tetra(N-methyl-4-pyridyl)porphine tetratosylate] | invisible | 0 µg | Highly visible | 5.1 µg
Cc1cc2nc3ccc(N(C)C)cc3[s+]c2cc1N.[Cl-] [TBO, Toluidine Blue O] | Slightly | 2.84 µg | Highly visible | 8.45 µg
